Measured values from patent US20220243249A1, “ANTAGONISTS OF CAMKII-DELTA 9 AND USES THEREOF” (PEKING UNIVERSITY, priority 2019, published 2022).

Biological target: UBE2T-myc (plasmid-expressed in HEK293 cells) (Rattus norvegicus)
Test: co-immunoprecipitation in transfected HEK293 cells

- binding: binds
B1: peptide encoded by CaMKII-δ exons 13-16-17, tagged with Flag-GFP (peptide, not shown: large carriers)
chain: AAKSLLKKPDGVKEPQTTVIHNPDGNKESTESSNTTIEDEDVK

These are yes or no findings as the source states them, for the method shown. In cells and extracts the contact can be indirect. Binding calls can cover weak binding; strength is not graded here. Tags and fused reporters may be left off the sequences shown.
